The other results are listed elsewhere or left out.
Each compound was assayed on T1, CTL2-GFP (C. trachomatis L2/434/Bu, GFP-expressing). Conditions: bulk GFP, single well; 28.5 h, 10 µM; inhibitor.
T1 construct: L2/434/Bu, GFP-expressing
Set-up: species or system HeLa; Intracellular C. trachomatis growth in HeLa cells, bulk GFP fluorescence relative to DMSO

Row | Structure (SMILES) | % of control remaining
1 | COc1cccc(COc2cnc(-c3ccccc3)c(N)n2)c1OC [CBK145066] | 100.485%
2 | O=C(Nc1ncc(Cc2ccc(F)cc2)s1)c1csc2c1CCCC2 [CBK300489] | 83.1825%
3 | CCC(CN1CCCC1)NC(=O)Cc1c(C)[nH]c2ccc(F)cc12 (stereo not drawn) [CBK282751] | 145.02%
4 | COc1ccc(-c2csc(NS(=O)(=O)c3c(C)cc(Cl)cc3Cl)n2)cc1 [CBK000814] | 104.484%
5 | COc1ccc(/C=N/NC(=O)CCn2c3ccccc3c3ccccc32)cc1O [CBK262343] | 109.022%
6 | CC1(C)O[C@@H]2O[C@@H](C(O)CNC(=O)c3ccccc3)[C@@H](NC(=O)c3ccccc3)[C@@H]2O1 (stereo partly drawn) [CBK008727] | 95.8925%
7 | C[C@H](c1ccccc1)n1c(=O)[nH]c2ncc(-c3ccc(C(N)=O)cc3)nc21 [CBK064377] | 95.1137%
8 | CN(C)CCCNC(=O)c1cccc(S(=O)(=O)N2CCCCC2)c1 [CBK304314C] | 120.983%
9 | Cc1cccc(CN(CCCN(C)C)Cc2ccc(C)o2)n1 [CBK283187] | 108.078%
10 | COc1ccc(NC(=O)CC(CN2CCN(c3ccc(Cl)cc3)CC2)C(=O)O)cc1 (stereo not drawn) [CBK286831] | 138.442%
11 | Cn1c(=O)oc2ccc(C(=O)N3CCn4nc(CO)cc4C3)cc21 [CBK306821] | 132.275%
12 | CCOCCCn1c(SC(C)C#N)nc2ccc(Br)cc2c1=O (stereo not drawn) [CBK306084] | 82.2383%
13 | COc1ccc(-c2nn(CCC(=O)O)cc2/C=C2\SC(=S)NC2=O)cc1OC [CBK265318] | 105.169%
14 | COc1cc(NC(=O)c2ccc(-c3cc4ccccc4oc3=O)cc2)ccc1NC(=O)C(C)C [CBK268601] | 91.0288%
15 | S=c1[nH]cnc2c1[nH]c1ccc(Br)cc12 [CBK288487] | 78.7357%
16 | CC1CCCN(C(=O)CCn2c(-c3ccccn3)cc3cccnc32)C1 (stereo not drawn) [CBK282154] | 126.866%
17 | CN1CCN(c2nc(NS(=O)(=O)c3cccc(C(F)(F)F)c3)cc3ccccc23)CC1 [CBK200013C] | 90.5504%
18 | O=C(Cc1ccsc1)N1CCN(c2ncccn2)CC1 [CBK144525] | 109.257%
19 | COc1ccnc(N2CCN(Cc3cncn3C3CCCCC3)CC2)n1 [CBK306925] | 111.579%
20 | CC(=O)NC(c1nccs1)C1CCN(C(=O)C2CC2C)CC1 (stereo not drawn) [CBK282232] | 128.688%
21 | O=C(Nc1ccc2nc(-c3ccc(-c4nc5ccc(NC(=O)c6cccc7ccccc67)cc5[nH]4)cc3)[nH]c2c1)c1cccc2ccccc12 [CBK261160] | 92.7276%

In a second layout: 2 of the compounds above
Row	Structure (SMILES)	% of control remaining
14	COc1cc(NC(=O)c2ccc(-c3cc4ccccc4oc3=O)cc2)ccc1NC(=O)C(C)C [CBK268601]	91.0288%
15	S=c1[nH]cnc2c1[nH]c1ccc(Br)cc12 [CBK288487]	78.7357%

Source: article PMC12040169 (PLOS Biology, 2025)
